No constants are given. Whether binding was seen depends on the method and setting. Binding seen in cells or lysates may run through a third protein. Some results given as binding are weak or reduced against the parent protein; the word gives no strength. Where a sequence is shown, tags or fusion partners need not be part of it.
What was measured:
Assay in all cases: co-IP
[1] = biological target: T1, Cdc19-V5 (pyruvate kinase) (S. cerevisiae) (UniProt P00549)
T1 sequence: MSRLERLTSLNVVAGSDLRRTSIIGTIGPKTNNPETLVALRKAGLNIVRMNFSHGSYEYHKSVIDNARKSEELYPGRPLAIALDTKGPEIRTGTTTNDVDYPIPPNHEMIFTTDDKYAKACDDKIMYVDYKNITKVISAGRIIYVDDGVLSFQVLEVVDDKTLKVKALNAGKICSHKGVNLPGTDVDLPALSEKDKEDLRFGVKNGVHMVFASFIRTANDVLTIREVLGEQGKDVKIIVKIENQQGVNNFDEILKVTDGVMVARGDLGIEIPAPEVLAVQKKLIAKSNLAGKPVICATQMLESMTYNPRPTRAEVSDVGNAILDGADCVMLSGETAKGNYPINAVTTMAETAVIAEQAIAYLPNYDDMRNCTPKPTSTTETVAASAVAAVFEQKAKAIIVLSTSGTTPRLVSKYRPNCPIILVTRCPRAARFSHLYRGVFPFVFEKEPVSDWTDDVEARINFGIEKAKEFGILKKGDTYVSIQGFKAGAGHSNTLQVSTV

Protein sequences, listed by entry. Tags and fused reporters are not part of them. Lines headed by an entry give the natural chain unless they say otherwise; changes in a name come on top.
UniProt P00359, whole entry: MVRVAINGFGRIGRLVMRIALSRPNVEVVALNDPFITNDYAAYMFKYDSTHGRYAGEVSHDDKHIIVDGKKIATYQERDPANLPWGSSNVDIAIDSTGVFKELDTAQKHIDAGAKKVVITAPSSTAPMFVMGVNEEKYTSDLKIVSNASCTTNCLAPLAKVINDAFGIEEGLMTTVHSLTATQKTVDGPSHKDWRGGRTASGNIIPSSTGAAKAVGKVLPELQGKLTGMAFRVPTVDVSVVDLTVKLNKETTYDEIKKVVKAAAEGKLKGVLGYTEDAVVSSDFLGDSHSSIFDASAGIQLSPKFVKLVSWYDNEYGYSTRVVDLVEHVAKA

Eno2-V5 (S. cerevisiae) = biological target: T2, Eno2-V5 (S. cerevisiae) (UniProt P00925)
T2 sequence: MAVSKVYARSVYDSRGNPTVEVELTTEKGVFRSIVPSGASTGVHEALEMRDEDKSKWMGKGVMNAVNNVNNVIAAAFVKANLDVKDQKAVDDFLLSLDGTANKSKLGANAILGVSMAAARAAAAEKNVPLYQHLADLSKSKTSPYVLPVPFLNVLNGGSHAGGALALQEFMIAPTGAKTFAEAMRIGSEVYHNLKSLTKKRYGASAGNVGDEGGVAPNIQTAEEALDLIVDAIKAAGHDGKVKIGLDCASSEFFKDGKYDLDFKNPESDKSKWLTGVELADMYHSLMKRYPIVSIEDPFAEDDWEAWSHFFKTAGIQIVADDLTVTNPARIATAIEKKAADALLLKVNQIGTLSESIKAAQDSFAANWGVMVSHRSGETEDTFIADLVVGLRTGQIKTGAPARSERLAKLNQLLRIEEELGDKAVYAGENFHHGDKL

[2] = biological target: T3, Gnd1-V5 (6-phosphogluconate dehydrogenase) (S. cerevisiae) (UniProt P38720)
T3 sequence: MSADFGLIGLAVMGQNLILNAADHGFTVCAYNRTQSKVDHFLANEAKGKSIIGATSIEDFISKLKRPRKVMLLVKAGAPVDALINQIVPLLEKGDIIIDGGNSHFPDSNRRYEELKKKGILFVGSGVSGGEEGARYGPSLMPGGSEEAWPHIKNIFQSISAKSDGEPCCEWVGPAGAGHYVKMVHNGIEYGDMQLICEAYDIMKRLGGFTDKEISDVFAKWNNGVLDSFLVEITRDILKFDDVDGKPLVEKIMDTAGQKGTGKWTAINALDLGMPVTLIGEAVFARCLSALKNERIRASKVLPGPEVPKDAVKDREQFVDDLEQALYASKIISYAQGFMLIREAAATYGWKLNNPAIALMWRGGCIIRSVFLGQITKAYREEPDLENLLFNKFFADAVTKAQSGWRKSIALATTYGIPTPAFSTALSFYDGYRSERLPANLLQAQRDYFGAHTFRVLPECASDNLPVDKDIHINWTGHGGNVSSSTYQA

Gpd1-V5 (S. cerevisiae) = biological target: T4, Gpd1-V5 (S. cerevisiae) (UniProt Q00055)
T4 sequence: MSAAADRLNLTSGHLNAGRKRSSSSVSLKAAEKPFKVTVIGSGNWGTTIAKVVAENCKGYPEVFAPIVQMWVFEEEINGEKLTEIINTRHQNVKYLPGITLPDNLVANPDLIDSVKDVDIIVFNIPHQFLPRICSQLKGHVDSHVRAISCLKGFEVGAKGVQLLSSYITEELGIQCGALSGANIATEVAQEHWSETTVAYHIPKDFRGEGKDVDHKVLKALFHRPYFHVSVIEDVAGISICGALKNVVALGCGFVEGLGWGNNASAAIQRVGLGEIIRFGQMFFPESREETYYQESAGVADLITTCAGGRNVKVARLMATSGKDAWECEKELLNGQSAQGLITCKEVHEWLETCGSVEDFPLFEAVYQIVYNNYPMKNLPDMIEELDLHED

[3] = biological target: Tdh3-V5 (glyceraldehyde-3-phosphate dehydrogenase) (S. cerevisiae) (UniProt P00359)

Measured: binding

B1: Tsa1^WT-HA (peroxiredoxin Tsa1, single C-terminal HA tag at the endogenous locus) (protein, UniProt P34760 1-196)
chain: MVAQVQKQAPTFKKTAVVDGVFDEVSLDKYKGKYVVLAFIPLAFTFVCPTEIIAFSEAAKKFEEQGAQVLFASTDSEYSLLAWTNIPRKEGGLGPINIPLLADTNHSLSRDYGVLIEEEGVALRGLFIIDPKGVIRHITINDLPVGRNVDEALRLVEAFQWTDKNGTVLPCNWTPGAATIKPTVEDSKEYFEAANK
binds: all assays above

B2: Tsa1^C171S-HA (resolving cysteine mutant) (protein, UniProt P34760 1-196)
chain: MVAQVQKQAPTFKKTAVVDGVFDEVSLDKYKGKYVVLAFIPLAFTFVCPTEIIAFSEAAKKFEEQGAQVLFASTDSEYSLLAWTNIPRKEGGLGPINIPLLADTNHSLSRDYGVLIEEEGVALRGLFIIDPKGVIRHITINDLPVGRNVDEALRLVEAFQWTDKNGTVLPSNWTPGAATIKPTVEDSKEYFEAANK
binds: all assays above
